Binding data for one substance are collected here from article PMC5809731.

By UniProt entry, the sequences of proteins in these tests, tags left out. Where a name states a change or a piece, a line headed by the entry shows the natural chain unless it says otherwise. Chains listed by the source or under a name are the forms on record and can include a tag or linker.
B30.2 domain of rhesus TRIM5α (Q0PF16, form named): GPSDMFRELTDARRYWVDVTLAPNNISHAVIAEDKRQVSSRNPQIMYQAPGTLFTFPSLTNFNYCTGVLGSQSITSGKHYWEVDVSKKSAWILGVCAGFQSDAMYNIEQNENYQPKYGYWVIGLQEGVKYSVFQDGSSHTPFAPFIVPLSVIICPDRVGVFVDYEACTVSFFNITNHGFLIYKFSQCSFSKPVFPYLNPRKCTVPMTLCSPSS

No constants are given. Whether binding was seen depends on the method and setting.

This test deals with B30.2 domain of rhesus TRIM5α (rhesus macaque) (UniProt Q0PF16). The test can be described thus: dual-focus fluorescence correlation spectroscopy (2fFCS); both purified.

With Lysozyme (from UniProt P00698 19-147), the binding result is “no binding”.
